Laboratory results reported in US11259522B2, “Control of resistant pests” (priority 2017, dated 2022).

How the values were obtained:
[1] = system: Halotydeus destructor susceptible population; experiment: Coated plastic vial bioassay, redlegged earth mite, susceptible population; assay type: in vivo; conditions: 24 hours exposure
Procedure: The efficacy of flavesone against H. destructor was assessed using the glass vial technique developed by Hoffmann et al. (1997, Exp. Appl. Acarol., 21:151-162), adapted for plastic vials. A susceptible population of mites was collected from capeweed (Arctotheca calendula) at a Victorian site (37° 40′33″S, 145° 07′ 45″E) that had no known history of insecticide application. Following collection, samples were stored in small plastic containers with leaf material and paper towel to absorb excess moisture. Containers were kept at 4° C. prior to testing.
(§1) The test compositions included 0.1% Tween 20 non-ionic surfactant to aid the spread of insecticides when coating plastic vials. This concentration of Tween 20 has been previously shown to have no toxic effect on H. destructor. For each insecticide concentration tested, 3, 10, 30, 100, 300, 1000, 3000 and 10000 mg a.i./L (ppm), approximately 10 mL of solution was poured into a 15 mL plastic vial and swirled to ensure a complete coating, with excess liquid removed. Eight vials were coated per concentration and were left to dry overnight. Control vials were treated in the same way but with water used in place of test composition.
Eight susceptible H. destructor mites were then placed into each vial along with a leaf of common vetch (Vicia sativa). The leaf was added to provide food and increase humidity. Vials were then sealed with a lid and placed at 18° C. After 4, 6, 8 and 24 hours of exposure, the mites were scored as alive (moving freely), incapacitated (inhibited movement), or dead (no movement over a 5 second period). […]
(§2) The data produced in the assays were assessed for concentrations that caused 50, 90 and 99% mortality (lethal concentration, LC), together with 95% confidence intervals (CIs) and were estimated from observations of mortality after 24 hours exposure using a binomial logistic regression (Robertson & Preisler, 1992, Pesticide Bioassays with Arthropods. CRC: Boca Raton; Venables & Ripley, 2002, Modern Applied Statistics with S. Springer: New York). […]

[2] = system: Halotydeus destructor resistant population (synthetic pyrethroid resistance); experiment: Coated plastic vial bioassay, redlegged earth mite, resistant population; assay type: in vivo; conditions: 24 hours exposure
Procedure: as §1
Eight susceptible H. destructor mites were then placed into each vial along with a leaf of common vetch (Vicia sativa). The leaf was added to provide food and increase humidity. Vials were then sealed with a lid and placed at 18° C. After 4, 6, 8 and 24 hours of exposure, the mites were scored as alive (moving freely), incapacitated (inhibited movement), or dead (no movement over a 5 second period).
The resistant population of H. destructor was collected from a lucerne paddock in the Upper South-East district of South Australia, where resistance to synthetic pyrethroids was confirmed in late 2016.
as §2, with “York). Population differences were tested by comparing the change in model deviance with and without the population factor (different regression intercepts for each population). Differences in regression slopes between populations were tested by comparing the change in model deviance with and without the population×dose interaction term.” for “York).”

[3] = system: M. persicae (green peach aphid) insecticide-susceptible population; experiment: Leaf dip bioassay, green peach aphid, susceptible population; assay type: in vivo, Myzus persicae; conditions: 96 hours exposure
Procedure: (§3) Each colony was maintained separately on bok choi plants ([…]) within an exclusion cage in a constant temperature room at 24° C. with a photoperiod of 16:8 LD.
(§4) Laboratory bioassays were used to determine the efficacy of flavesone against M. persicae following the leaf dip method described in Moores et al. (1994, Pesticide Biochemistry and Physiology, 49, 114-120). A pilot study was first conducted which confirmed that the leaf dip method was appropriate to elicit a clear dose response for Flavocide 500EW against M. persicae, and to determine the appropriate rate range and timing of mortality assessments (scored at 24, 48, 72 & 96 hours) (data not shown).
(§5) Bioassays were then conducted to assess the efficacy of flavesone against a susceptible and resistant population of M. persicae, and to calculate LC values. The efficacy of a conventional insecticide, pirimicarb, was tested for comparison. […]
(§6) After aphid introduction, each petri dish was inverted onto a lid containing a 25 mm diameter filter paper to control humidity. […] At 48 & 96 hours, aphids were scored as alive (vibrant and moving freely), dead (not moving over a 5 second period), or incapacitated (inhibited movement).
(§7) Dose-response curves were generated by plotting percentage mortality against log concentration. Mortality data was analysed using a logistic regression model with random effects. […]

[4] = system: M. persicae (green peach aphid) population resistant to carbamates and synthetic pyrethroids; experiment: Leaf dip bioassay, green peach aphid, resistant population; assay type: in vivo, Myzus persicae; conditions: 96 hours exposure
Procedure: as §3, §4, §5, §6, §7

| Structure (SMILES) | Regression slope coeffeicient (±SE) [1] | Regression slope coeffeicient (±SE) [2] | Regression slope coefficients (±SE) [3] | Regression slope coefficients (±SE) [4] |
| --- | --- | --- | --- | --- |
| CCOP(=S)(OCC)Oc1nc(Cl)c(Cl)cc1Cl [Chlorpyrifos, chlorpyrifos, reference compound] | 1.68 (0.26) | 1.27 (0.18) | – | – |
| Cc1nc(N(C)C)nc(OC(=O)N(C)C)c1C [Pirimicarb, pirimicarb, reference compound] | – | – | 1.52 | −0.13 |
| CC(C)C(=O)C1C(=O)C(C)(C)C(=O)C(C)(C)C1=O [Flavesone, 1-isobutyroyl-3,3,5,5-tetramethylcyclohexane-2,4,6-trione] | 1.75 (0.17) | 1.78 (0.17) | 2.77 | 2.38 |
| Cc1c(COC(=O)[C@@H]2[C@H](/C=C(\Cl)C(F)(F)F)C2(C)C)cccc1-c1ccccc1 (racemic) [Bifenthrin, bifenthrin] | 0.54 (0.05) | 0.27 (0.05) | – | – |
